Reference: US20150064287A1, “METHOD FOR TREATING ABNORMAL POLYGLUTAMINE-MEDIATED DISEASES” (NATIONAL TAIWAN NORMAL UNIVERSITY, priority 2013, published 2015)

Columns and labels:
[1] = MTT cytotoxicity assay in SH-SY5Y cells; format: cell-based; conditions: human, one day treatment
Procedure: (§1) Cells (5×10^4/well in 48-well dishes) were cultivated at 37° C. incubator containing 5% CO2 for 20 hr and treated with different concentrations of the Gardenia jasminoides extract (5-30 mg/mL) or pure compound (100 nM-1 mM). After one day, 20 μL MTT (3,[4,5-dimethylthiazol-2-yl]-2,5-diphenyl-tetrazolium bromide, 5 mg/mL in PBS; Sigma-Aldrich) was added to cells and incubated for 2 hr. The absorbance of the purple formazan dye was measured at 570 nm by a Bio-Tek μQuant Universal Microplate Spectrophotometer.

[2] = MTT cytotoxicity assay in HEK-293 cells; format: cell-based; conditions: human, one day treatment
Procedure: as §1

## O=C(CCCCCCC(=O)Nc1ccccc1)NO [SAHA, suberoylanilide hydroxamic acid, reference compound]
[1]
  IC50 at 1 day: 20 µM
[2]
  IC50 at 1 day: 380 µM
